In the experiment the target is T1, Mouse PSAP-myc-his (mouse) (UniProt Q61207).
T1 sequence: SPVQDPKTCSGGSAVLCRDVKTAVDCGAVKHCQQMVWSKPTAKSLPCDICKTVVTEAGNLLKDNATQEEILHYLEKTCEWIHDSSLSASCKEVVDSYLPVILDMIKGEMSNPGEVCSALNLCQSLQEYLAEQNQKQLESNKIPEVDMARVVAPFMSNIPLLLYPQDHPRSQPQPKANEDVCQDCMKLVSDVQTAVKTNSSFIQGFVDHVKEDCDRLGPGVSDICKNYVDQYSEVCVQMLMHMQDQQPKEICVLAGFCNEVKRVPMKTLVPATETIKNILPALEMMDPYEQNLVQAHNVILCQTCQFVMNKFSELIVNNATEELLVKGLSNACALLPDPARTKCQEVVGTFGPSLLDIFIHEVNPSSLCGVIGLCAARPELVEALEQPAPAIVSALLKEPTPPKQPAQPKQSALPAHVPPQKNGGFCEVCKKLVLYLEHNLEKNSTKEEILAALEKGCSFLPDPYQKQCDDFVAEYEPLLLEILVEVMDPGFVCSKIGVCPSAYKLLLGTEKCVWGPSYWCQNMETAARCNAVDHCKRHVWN
The experiment can be described thus: co-IP; HEK293T cells transfected with PSAP, sortilin and PGRN constructs together; lysates subject to anti-myc immunoprecipitation and blotted.

Amino acid sequences for entries named in this document (tags omitted). Residues count along the entry.
UniProt P28799, residues 18-593: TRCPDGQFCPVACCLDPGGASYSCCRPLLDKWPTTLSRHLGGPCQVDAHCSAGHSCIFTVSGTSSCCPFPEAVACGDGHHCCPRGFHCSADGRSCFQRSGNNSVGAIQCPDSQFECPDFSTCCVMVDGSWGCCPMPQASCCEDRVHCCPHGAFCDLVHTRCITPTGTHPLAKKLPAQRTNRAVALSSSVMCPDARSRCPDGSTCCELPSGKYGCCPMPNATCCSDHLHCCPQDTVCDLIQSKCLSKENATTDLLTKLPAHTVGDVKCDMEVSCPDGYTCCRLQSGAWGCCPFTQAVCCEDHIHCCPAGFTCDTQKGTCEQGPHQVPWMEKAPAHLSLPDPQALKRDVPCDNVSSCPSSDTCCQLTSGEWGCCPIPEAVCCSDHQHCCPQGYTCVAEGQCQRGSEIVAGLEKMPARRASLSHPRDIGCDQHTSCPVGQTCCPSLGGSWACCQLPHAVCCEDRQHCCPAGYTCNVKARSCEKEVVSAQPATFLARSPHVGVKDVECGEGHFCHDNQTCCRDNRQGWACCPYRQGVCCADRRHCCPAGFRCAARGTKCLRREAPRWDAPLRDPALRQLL

Results are given in words; binding and its absence hold for the method and conditions named. In cells and extracts the contact can be indirect. Some binding calls cover weakened binding; strength is not graded here. Tags and fused reporters may be left off the sequences shown.

This passage reports binding results from paper PMC5477518.

As for “Human PGRN (pCMV-Sport6 construct) (from UniProt P28799 18-593)”, the binding entry is on record as “binds”.
